Measurements from patent publication US7348421B1, “Methods for production of p-hydroxybenzoate in bacteria” (North Carolina State University, priority 2000, dated 2008).

Experiments:
[1] = test system: Pseudomonas putida DOT-T1E (wild-type); type: cell-based; conditions: gradient 0 to 50 g/L
T1E pPAT7 = type: cell-based, Pseudomonas putida; conditions: gradient 0 to 50 g/L

SMILES: N[C@@H](Cc1ccc(O)cc1)C(=O)O [Tyrosine, L-tyrosine]
- tolerance to amino acid [1]: 39.4 g/L
- tolerance to amino acid (T1E pPAT7): 36.5 g/L
